Results are given in words; binding and its absence hold for the method and conditions named. Sequences can lack the tags named with a protein.
Target: T1, MBP-TtProDH variant EE (MBP-TtProDH with Phe10 and Leu12 replaced by Glu) (Thermus thermophilus) (UniProt Q72IB8)
T1 sequence: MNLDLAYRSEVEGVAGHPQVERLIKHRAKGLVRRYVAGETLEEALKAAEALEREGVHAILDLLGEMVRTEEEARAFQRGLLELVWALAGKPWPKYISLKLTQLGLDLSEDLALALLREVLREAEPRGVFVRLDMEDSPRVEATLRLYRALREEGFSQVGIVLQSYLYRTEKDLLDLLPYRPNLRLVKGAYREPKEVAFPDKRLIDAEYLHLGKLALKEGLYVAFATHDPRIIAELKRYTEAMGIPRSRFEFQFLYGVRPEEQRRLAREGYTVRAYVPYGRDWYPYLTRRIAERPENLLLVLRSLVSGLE
Assay: SEC; 20 µM EE and 20 µM ΔABC mixed in 50 mM sodium phosphate pH 7.4, incubated at room temperature overnight, then Superdex 200 gel filtration; SDS-PAGE of the fractions; both purified

B1: MBP-TtProDH ΔABC (MBP-TtProDH lacking helices αA, αB and αC) (domain or fragment, Thermus thermophilus, UniProt Q72IB8 38-287, looked up)
chain: GETLEEALKAAEALEREGVHAILDLLGEMVRTEEEARAFQRGLLELVWALAGKPWPKYISLKLTQLGLDLSEDLALALLREVLREAEPRGVFVRLDMEDSPRVEATLRLYRALREEGFSQVGIVLQSYLYRTEKDLLDLLPYRPNLRLVKGAYREPKEVAFPDKRLIDAEYLHLGKLALKEGLYVAFATHDPRIIAELKRYTEAMGIPRSRFEFQFLYGVRPEEQRRLAREGYTVRAYVPYGRDWYPYLT
notes: Proline dehydrogenase (TtProDH), Thermus thermophilus, lacking the whole N-terminal arm; PDB 5M42)'; the construct encodes up to residue 309, but the observed species is C-terminally truncated, cleaved before Arg288 (residues 288-309 removed); The difference of the predicted masses of ΔAB and ΔABC (75.5 against 74.4 kDa) fits a start at G38; not shown: MBP, N-terminal, kept
In the case of B1, the binding is reported as “no binding (tested: 20 µM each)”.
